Reference: article PMC6608618, “Structures of three ependymin-related proteins suggest their function as a hydrophobic molecule binder” (IUCrJ, 2019)

The chains behind the UniProt entries cited, without tags or fusion partners. Residues count along the entry.
UniProt P11717, residues 41-2491: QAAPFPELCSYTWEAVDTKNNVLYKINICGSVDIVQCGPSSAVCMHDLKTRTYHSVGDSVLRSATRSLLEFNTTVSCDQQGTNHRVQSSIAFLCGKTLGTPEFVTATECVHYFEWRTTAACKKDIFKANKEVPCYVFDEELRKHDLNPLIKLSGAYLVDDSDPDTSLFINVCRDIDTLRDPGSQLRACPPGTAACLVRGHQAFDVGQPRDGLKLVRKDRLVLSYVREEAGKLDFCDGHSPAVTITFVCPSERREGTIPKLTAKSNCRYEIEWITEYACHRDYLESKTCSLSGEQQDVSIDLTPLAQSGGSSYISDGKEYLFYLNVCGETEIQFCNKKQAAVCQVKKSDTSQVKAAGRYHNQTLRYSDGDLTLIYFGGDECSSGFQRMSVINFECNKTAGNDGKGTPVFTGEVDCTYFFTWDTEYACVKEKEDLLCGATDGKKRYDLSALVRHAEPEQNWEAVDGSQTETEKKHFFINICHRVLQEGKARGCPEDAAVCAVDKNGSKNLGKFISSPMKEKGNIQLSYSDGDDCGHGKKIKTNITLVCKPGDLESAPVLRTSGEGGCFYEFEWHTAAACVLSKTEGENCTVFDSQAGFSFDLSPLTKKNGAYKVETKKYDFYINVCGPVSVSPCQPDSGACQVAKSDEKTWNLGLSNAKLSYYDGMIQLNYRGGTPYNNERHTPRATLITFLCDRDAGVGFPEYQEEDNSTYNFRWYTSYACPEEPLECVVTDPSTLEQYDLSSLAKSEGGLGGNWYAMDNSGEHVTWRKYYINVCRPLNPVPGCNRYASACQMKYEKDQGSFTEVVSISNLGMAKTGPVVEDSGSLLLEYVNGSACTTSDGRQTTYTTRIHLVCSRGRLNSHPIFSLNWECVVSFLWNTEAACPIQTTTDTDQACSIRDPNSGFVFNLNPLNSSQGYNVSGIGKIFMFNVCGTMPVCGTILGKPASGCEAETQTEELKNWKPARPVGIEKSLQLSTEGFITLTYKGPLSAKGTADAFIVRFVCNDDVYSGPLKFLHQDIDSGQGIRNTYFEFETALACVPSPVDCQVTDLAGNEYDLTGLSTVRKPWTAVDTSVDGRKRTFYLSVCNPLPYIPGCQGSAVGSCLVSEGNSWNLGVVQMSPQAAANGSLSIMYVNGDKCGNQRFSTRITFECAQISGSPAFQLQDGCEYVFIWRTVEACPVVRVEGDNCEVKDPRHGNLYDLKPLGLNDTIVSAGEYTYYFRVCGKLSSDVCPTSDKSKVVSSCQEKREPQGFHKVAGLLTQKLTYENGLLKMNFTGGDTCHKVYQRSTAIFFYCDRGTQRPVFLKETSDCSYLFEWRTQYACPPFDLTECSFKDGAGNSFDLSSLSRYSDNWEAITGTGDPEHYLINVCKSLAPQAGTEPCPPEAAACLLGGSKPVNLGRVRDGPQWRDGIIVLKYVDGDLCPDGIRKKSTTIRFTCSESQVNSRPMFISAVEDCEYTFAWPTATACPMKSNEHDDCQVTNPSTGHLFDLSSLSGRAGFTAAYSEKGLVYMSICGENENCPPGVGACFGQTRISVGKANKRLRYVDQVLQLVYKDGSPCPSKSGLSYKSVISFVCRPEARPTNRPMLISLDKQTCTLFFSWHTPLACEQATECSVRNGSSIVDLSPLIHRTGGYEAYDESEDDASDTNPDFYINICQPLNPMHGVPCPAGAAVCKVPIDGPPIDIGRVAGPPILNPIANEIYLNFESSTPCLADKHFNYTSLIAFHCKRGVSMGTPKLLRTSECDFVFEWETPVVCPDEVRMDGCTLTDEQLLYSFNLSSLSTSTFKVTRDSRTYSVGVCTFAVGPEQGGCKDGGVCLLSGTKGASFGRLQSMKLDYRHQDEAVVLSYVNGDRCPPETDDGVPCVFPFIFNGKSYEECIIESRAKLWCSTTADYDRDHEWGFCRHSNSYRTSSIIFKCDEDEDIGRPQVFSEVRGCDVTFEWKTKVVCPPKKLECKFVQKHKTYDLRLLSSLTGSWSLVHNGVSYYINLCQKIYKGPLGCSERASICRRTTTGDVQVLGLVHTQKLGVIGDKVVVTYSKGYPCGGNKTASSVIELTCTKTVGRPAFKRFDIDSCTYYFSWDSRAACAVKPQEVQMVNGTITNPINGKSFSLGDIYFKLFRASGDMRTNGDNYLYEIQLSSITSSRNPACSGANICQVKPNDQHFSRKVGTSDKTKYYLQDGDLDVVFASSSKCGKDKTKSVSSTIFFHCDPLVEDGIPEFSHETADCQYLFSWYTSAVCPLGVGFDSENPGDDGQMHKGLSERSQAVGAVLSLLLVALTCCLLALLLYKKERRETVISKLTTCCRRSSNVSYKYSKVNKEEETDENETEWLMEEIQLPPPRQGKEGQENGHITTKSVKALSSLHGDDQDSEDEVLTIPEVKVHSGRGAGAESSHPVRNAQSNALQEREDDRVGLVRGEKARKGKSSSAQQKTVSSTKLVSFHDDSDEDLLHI

Legend:
[1] = target: T1, EPDR1^FLAG (full-length human EPDR1 1-224 with C-terminal GGGGS linker and FLAG tag) (human) (UniProt Q9UM22); assay: affinity purification with mass spectrometry; EPDR1^FLAG from culture medium pre-bound to anti-FLAG M2 agarose beads, incubated 1 h at 4 C with lysate of untransfected U-87MG cells (50 mM HEPES pH 7.5, 150 mM NaCl, 1% n-dodecyl beta-D-maltoside); control: medium of cells with empty vector; LC-MS/MS, MaxLFQ
T1 sequence: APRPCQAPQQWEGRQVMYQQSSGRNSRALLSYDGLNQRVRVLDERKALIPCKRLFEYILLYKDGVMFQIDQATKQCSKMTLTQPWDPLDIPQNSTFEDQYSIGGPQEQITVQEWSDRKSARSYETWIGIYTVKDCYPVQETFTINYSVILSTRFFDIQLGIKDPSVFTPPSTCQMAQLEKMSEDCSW

[2] = target: T1, EPDR1^FLAG (full-length human EPDR1 1-224 with C-terminal GGGGS linker and FLAG tag) (human); assay: as above; remark: listed apart in the source

binding [1]: binds
Molecule: insulin-like growth factor 2 receptor (from UniProt P11717 41-2491)

binding [2]: binds
B1: flotillin-2 (protein, UniProt Q14254 1-428)
chain: MGNCHTVGPNEALVVSGGCCGSDYKQYVFGGWAWAWWCISDTQRISLEIMTLQPRCEDVETAEGVALTVTGVAQVKIMTEKELLAVACEQFLGKNVQDIKNVVLQTLEGHLRSILGTLTVEQIYQDRDQFAKLVREVAAPDVGRMGIEILSFTIKDVYDKVDYLSSLGKTQTAVVQRDADIGVAEAERDAGIREAECKKEMLDVKFMADTKIADSKRAFELQKSAFSEEVNIKTAEAQLAYELQGAREQQKIRQEEIEIEVVQRKKQIAVEAQEILRTDKELIATVRRPAEAEAHRIQQIAEGEKVKQVLLAQAEAEKIRKIGEAEAAVIEAMGKAEAERMKLKAEAYQKYGDAAKMALVLEALPQIAAKIAAPLTKVDEIVVLSGDNSKVTSEVNRLLAELPASVHALTGVDLSKIPLIKKATGVQV

binding [2]: binds
B2: flotillin-1 (protein, UniProt O75955 1-427)
chain: MFFTCGPNEAMVVSGFCRSPPVMVAGGRVFVLPCIQQIQRISLNTLTLNVKSEKVYTRHGVPISVTGIAQVKIQGQNKEMLAAACQMFLGKTEAEIAHIALETLEGHQRAIMAHMTVEEIYKDRQKFSEQVFKVASSDLVNMGISVVSYTLKDIHDDQDYLHSLGKARTAQVQKDARIGEAEAKRDAGIREAKAKQEKVSAQYLSEIEMAKAQRDYELKKAAYDIEVNTRRAQADLAYQLQVAKTKQQIEEQRVQVQVVERAQQVAVQEQEIARREKELEARVRKPAEAERYKLERLAEAEKSQLIMQAEAEAASVRMRGEAEAFAIGARARAEAEQMAKKAEAFQLYQEAAQLDMLLEKLPQVAEEISGPLTSANKITLVSSGSGTMGAAKVTGEVLDILTRLPESVERLTGVSISQVNHKPLRTA

Read-outs that look alike come from different tables or passages of the source. These are yes or no findings as the source states them, for the method shown. In cells and extracts the contact can be indirect. Here binding means that the protein was enriched with, or labelled near, the bait; the list need not be complete. Tags and fused reporters may be left off the sequences shown. Each block holds one molecule with its values, some of them ahead of it.
